# According to the supplement of paper PMC8728848:
# The list shows a part of the results.
# Tests used:
# Assay in all cases: glycan array binding signal (z-score within array); higher = stronger binding
# Details in all cases: glycan notation: IUPAC condensed, linker removed
# [1] = molecular target: Gal(b1-4)GlcNAc(b1-2)[Gal(b1-4)GlcNAc(b1-6)]Man(a1-6)[GlcNAc(b1-4)][Gal(b1-4)GlcNAc(b1-2)[Gal(b1-4)GlcNAc(b1-4)]Man(a1-3)]Man(b1-4)GlcNAc(b1-4)[Fuc(a1-6)]GlcNAc
# Outline: (§1)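 Arrays were curated from the Consortium for Functional Glycomics database, 3228 in total, and kept only where the protein sequence was available. Binding is expressed as a within-array Z-score. This score was averaged across arrays of the same protein sequence at different concentrations or buffers and across linkers, and negative values can be read as non-binding.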
# [2] = molecular target: Gal(b1-4)GlcNAc(b1-3)Gal(b1-3)GalNAc
# Outline: as §1
# [3] = molecular target: Gal(b1-4)GlcNAc(b1-3)Gal(b1-3)GlcNAc
# Outline: as §1
# [4] = molecular target: Gal(b1-4)GlcNAc(b1-3)Gal(b1-4)Glc
# Outline: as §1
# [5] = molecular target: Gal(b1-4)GlcNAc(b1-3)Gal(b1-4)GlcNAc
# Outline: as §1
# [6] = molecular target: Gal(b1-4)GlcNAc(b1-3)Gal(b1-4)GlcNAc(b1-2)Man(a1-3)[Gal(b1-4)GlcNAc(b1-3)Gal(b1-4)GlcNAc(b1-2)Man(a1-6)]Man(b1-4)GlcNAc(b1-4)GlcNAc
# Outline: as §1
# [7] = molecular target: Gal(b1-4)GlcNAc(b1-3)Gal(b1-4)GlcNAc(b1-2)Man(a1-3)[Gal(b1-4)GlcNAc(b1-3)Gal(b1-4)GlcNAc(b1-2)Man(a1-6)]Man(b1-4)GlcNAc(b1-4)[Fuc(a1-6)]GlcNAc
# Outline: as §1
# [8] = molecular target: Gal(b1-4)GlcNAc(b1-3)Gal(b1-4)GlcNAc(b1-2)[Gal(b1-4)GlcNAc(b1-3)Gal(b1-4)GlcNAc(b1-6)]Man(a1-6)[Gal(b1-4)GlcNAc(b1-3)Gal(b1-4)GlcNAc(b1-2)Man(a1-3)]Man(b1-4)GlcNAc(b1-4)GlcNAc
# Outline: as §1
# [9] = molecular target: Gal(b1-4)GlcNAc(b1-3)Gal(b1-4)GlcNAc(b1-2)[Gal(b1-4)GlcNAc(b1-3)Gal(b1-4)GlcNAc(b1-6)]Man(a1-6)[Gal(b1-4)GlcNAc(b1-3)Gal(b1-4)GlcNAc(b1-2)Man(a1-3)]Man(b1-4)GlcNAc(b1-4)[Fuc(a1-6)]GlcNAc
# Outline: as §1
# [10] = molecular target: Gal(b1-4)GlcNAc(b1-3)Gal(b1-4)GlcNAc(b1-3)Gal(b1-4)GlcNAc
# Outline: as §1
# [11] = molecular target: Gal(b1-4)GlcNAc(b1-3)Gal(b1-4)GlcNAc(b1-3)Gal(b1-4)GlcNAc(b1-2)Man(a1-3)[Gal(b1-4)GlcNAc(b1-3)Gal(b1-4)GlcNAc(b1-3)Gal(b1-4)GlcNAc(b1-2)Man(a1-6)]Man(b1-4)GlcNAc(b1-4)GlcNAc
# Outline: as §1
# [12] = molecular target: Gal(b1-4)GlcNAc(b1-3)Gal(b1-4)GlcNAc(b1-3)Gal(b1-4)GlcNAc(b1-2)Man(a1-3)[Gal(b1-4)GlcNAc(b1-3)Gal(b1-4)GlcNAc(b1-3)Gal(b1-4)GlcNAc(b1-2)Man(a1-6)]Man(b1-4)GlcNAc(b1-4)[Fuc(a1-6)]GlcNAc
# Outline: as §1
# [13] = molecular target: Gal(b1-4)GlcNAc(b1-3)Gal(b1-4)GlcNAc(b1-3)Gal(b1-4)GlcNAc(b1-2)[Gal(b1-4)GlcNAc(b1-3)Gal(b1-4)GlcNAc(b1-3)Gal(b1-4)GlcNAc(b1-6)]Man(a1-6)[Gal(b1-4)GlcNAc(b1-3)Gal(b1-4)GlcNAc(b1-3)Gal(b1-4)GlcNAc(b1-2)Man(a1-3)]Man(b1-4)GlcNAc(b1-4)[Fuc(a1-6)]GlcNAc
# Outline: as §1
# [14] = molecular target: Gal(b1-4)GlcNAc(b1-3)Gal(b1-4)GlcNAc(b1-3)Gal(b1-4)GlcNAc(b1-3)Gal(b1-4)GlcNAc(b1-2)Man(a1-3)[Gal(b1-4)GlcNAc(b1-3)Gal(b1-4)GlcNAc(b1-3)Gal(b1-4)GlcNAc(b1-3)Gal(b1-4)GlcNAc(b1-2)Man(a1-6)]Man(b1-4)GlcNAc(b1-4)GlcNAc
# Outline: as §1
# [15] = molecular target: Gal(b1-4)GlcNAc(b1-3)Gal(b1-4)GlcNAc(b1-3)Gal(b1-4)GlcNAc(b1-3)Gal(b1-4)GlcNAc(b1-2)Man(a1-3)[Gal(b1-4)GlcNAc(b1-3)Gal(b1-4)GlcNAc(b1-3)Gal(b1-4)GlcNAc(b1-3)Gal(b1-4)GlcNAc(b1-2)Man(a1-6)]Man(b1-4)GlcNAc(b1-4)[Fuc(a1-6)]GlcNAc
# Outline: as §1
# [16] = molecular target: Gal(b1-4)GlcNAc(b1-3)Gal(b1-4)GlcNAc(b1-3)Gal(b1-4)GlcNAc(b1-3)Gal(b1-4)GlcNAc(b1-2)[Gal(b1-4)GlcNAc(b1-3)Gal(b1-4)GlcNAc(b1-3)Gal(b1-4)GlcNAc(b1-3)Gal(b1-4)GlcNAc(b1-6)]Man(a1-6)[Gal(b1-4)GlcNAc(b1-3)Gal(b1-4)GlcNAc(b1-3)Gal(b1-4)GlcNAc(b1-3)Gal(b1-4)GlcNAc(b1-2)Man(a1-3)]Man(b1-4)GlcNAc(b1-4)[Fuc(a1-6)]GlcNAc
# Outline: as §1
# [17] = molecular target: Gal(b1-4)GlcNAc(b1-3)Gal(b1-4)GlcNAc(b1-3)Gal(b1-4)GlcNAc(b1-3)Gal(b1-4)GlcNAc(b1-3)Gal(b1-4)GlcNAc(b1-2)Man(a1-3)[Gal(b1-4)GlcNAc(b1-3)Gal(b1-4)GlcNAc(b1-3)Gal(b1-4)GlcNAc(b1-3)Gal(b1-4)GlcNAc(b1-3)Gal(b1-4)GlcNAc(b1-2)Man(a1-6)]Man(b1-4)GlcNAc(b1-4)GlcNAc
# Outline: as §1
# [18] = molecular target: Gal(b1-4)GlcNAc(b1-3)Gal(b1-4)GlcNAc(b1-3)Gal(b1-4)GlcNAc(b1-3)Gal(b1-4)GlcNAc(b1-3)Gal(b1-4)GlcNAc(b1-2)Man(a1-3)[Gal(b1-4)GlcNAc(b1-3)Gal(b1-4)GlcNAc(b1-3)Gal(b1-4)GlcNAc(b1-3)Gal(b1-4)GlcNAc(b1-3)Gal(b1-4)GlcNAc(b1-2)Man(a1-6)]Man(b1-4)GlcNAc(b1-4)[Fuc(a1-6)]GlcNAc
# Outline: as §1
# [19] = molecular target: Gal(b1-4)GlcNAc(b1-3)Gal(b1-4)GlcNAc(b1-3)Gal(b1-4)GlcNAc(b1-3)Gal(b1-4)GlcNAc(b1-3)Gal(b1-4)GlcNAc(b1-2)[Gal(b1-4)GlcNAc(b1-3)Gal(b1-4)GlcNAc(b1-3)Gal(b1-4)GlcNAc(b1-3)Gal(b1-4)GlcNAc(b1-3)Gal(b1-4)GlcNAc(b1-6)]Man(a1-6)[Gal(b1-4)GlcNAc(b1-3)Gal(b1-4)GlcNAc(b1-3)Gal(b1-4)GlcNAc(b1-3)Gal(b1-4)GlcNAc(b1-3)Gal(b1-4)GlcNAc(b1-2)Man(a1-3)]Man(b1-4)GlcNAc(b1-4)[Fuc(a1-6)]GlcNAc
# Outline: as §1
# [20] = molecular target: Gal(b1-4)GlcNAc(b1-3)Gal(b1-4)GlcNAc(b1-3)Gal(b1-4)GlcNAc(b1-3)Gal(b1-4)GlcNAc(b1-3)Gal(b1-4)GlcNAc(b1-3)Gal(b1-4)GlcNAc(b1-2)Man(a1-3)[Gal(b1-4)GlcNAc(b1-3)Gal(b1-4)GlcNAc(b1-3)Gal(b1-4)GlcNAc(b1-3)Gal(b1-4)GlcNAc(b1-3)Gal(b1-4)GlcNAc(b1-3)Gal(b1-4)GlcNAc(b1-2)Man(a1-6)]Man(b1-4)GlcNAc(b1-4)GlcNAc
# Outline: as §1
# [21] = molecular target: Gal(b1-4)GlcNAc(b1-3)Gal(b1-4)GlcNAc(b1-3)GalNAc
# Outline: as §1
# [22] = molecular target: Gal(b1-4)GlcNAc(b1-3)Gal(b1-4)GlcNAc(b1-3)[Gal(b1-4)GlcNAc(b1-3)Gal(b1-4)GlcNAc(b1-6)]GalNAc
# Outline: as §1
# [23] = molecular target: Gal(b1-4)GlcNAc(b1-3)Gal(b1-4)GlcNAc(b1-6)[Gal(b1-3)]GalNAc
# Outline: as §1
binder,measurement,setting,value
GST Gap3 (Streptococcus parasanguinis) (protein) MTKQLISEIYWNEIRKGENYLYGSQIKFQEDLVNFYNPQLASGKPIVTFKSRTNYQGDRHSPDLPILIQGNRYLLEYQIDAVPANSFFLQLDFFNRQAEQIESIVLRNSGESFIFPKDTFTYTLTLMSAGCQSVTYQKFMIYDINDEEKKNHIVENRYLRELLPKDLDLVKNLIEYI,glycan array binding signal (z-score),[1],0.228
same,glycan array binding signal (z-score),[2],-0.043
same,glycan array binding signal (z-score),[3],-0.349
same,glycan array binding signal (z-score),[4],-0.143
same,glycan array binding signal (z-score),[5],0.101
same,glycan array binding signal (z-score),[6],1.96
same,glycan array binding signal (z-score),[7],-0.444
same,glycan array binding signal (z-score),[8],0.321
same,glycan array binding signal (z-score),[9],0.649
same,glycan array binding signal (z-score),[10],0.165
same,glycan array binding signal (z-score),[11],1.89
same,glycan array binding signal (z-score),[12],-0.603
same,glycan array binding signal (z-score),[13],0.569
same,glycan array binding signal (z-score),[14],0.157
same,glycan array binding signal (z-score),[15],0.557
same,glycan array binding signal (z-score),[16],2.32
same,glycan array binding signal (z-score),[17],0.006
same,glycan array binding signal (z-score),[18],0.529
same,glycan array binding signal (z-score),[19],1.47
same,glycan array binding signal (z-score),[20],1.41
same,glycan array binding signal (z-score),[21],0.04
same,glycan array binding signal (z-score),[22],1.21
same,glycan array binding signal (z-score),[23],-0.588

# Two entries picked at random from those above, as already listed:
binder,measurement,setting,value
GST Gap3 (Streptococcus parasanguinis) (protein) MTKQLISEIYWNEIRKGENYLYGSQIKFQEDLVNFYNPQLASGKPIVTFKSRTNYQGDRHSPDLPILIQGNRYLLEYQIDAVPANSFFLQLDFFNRQAEQIESIVLRNSGESFIFPKDTFTYTLTLMSAGCQSVTYQKFMIYDINDEEKKNHIVENRYLRELLPKDLDLVKNLIEYI,glycan array binding signal (z-score),[13],0.569
same,glycan array binding signal (z-score),[10],0.165
